{"sequences": {"note": "The chains behind the UniProt entries cited, without tags or fusion partners.", "UniProt Q16531": "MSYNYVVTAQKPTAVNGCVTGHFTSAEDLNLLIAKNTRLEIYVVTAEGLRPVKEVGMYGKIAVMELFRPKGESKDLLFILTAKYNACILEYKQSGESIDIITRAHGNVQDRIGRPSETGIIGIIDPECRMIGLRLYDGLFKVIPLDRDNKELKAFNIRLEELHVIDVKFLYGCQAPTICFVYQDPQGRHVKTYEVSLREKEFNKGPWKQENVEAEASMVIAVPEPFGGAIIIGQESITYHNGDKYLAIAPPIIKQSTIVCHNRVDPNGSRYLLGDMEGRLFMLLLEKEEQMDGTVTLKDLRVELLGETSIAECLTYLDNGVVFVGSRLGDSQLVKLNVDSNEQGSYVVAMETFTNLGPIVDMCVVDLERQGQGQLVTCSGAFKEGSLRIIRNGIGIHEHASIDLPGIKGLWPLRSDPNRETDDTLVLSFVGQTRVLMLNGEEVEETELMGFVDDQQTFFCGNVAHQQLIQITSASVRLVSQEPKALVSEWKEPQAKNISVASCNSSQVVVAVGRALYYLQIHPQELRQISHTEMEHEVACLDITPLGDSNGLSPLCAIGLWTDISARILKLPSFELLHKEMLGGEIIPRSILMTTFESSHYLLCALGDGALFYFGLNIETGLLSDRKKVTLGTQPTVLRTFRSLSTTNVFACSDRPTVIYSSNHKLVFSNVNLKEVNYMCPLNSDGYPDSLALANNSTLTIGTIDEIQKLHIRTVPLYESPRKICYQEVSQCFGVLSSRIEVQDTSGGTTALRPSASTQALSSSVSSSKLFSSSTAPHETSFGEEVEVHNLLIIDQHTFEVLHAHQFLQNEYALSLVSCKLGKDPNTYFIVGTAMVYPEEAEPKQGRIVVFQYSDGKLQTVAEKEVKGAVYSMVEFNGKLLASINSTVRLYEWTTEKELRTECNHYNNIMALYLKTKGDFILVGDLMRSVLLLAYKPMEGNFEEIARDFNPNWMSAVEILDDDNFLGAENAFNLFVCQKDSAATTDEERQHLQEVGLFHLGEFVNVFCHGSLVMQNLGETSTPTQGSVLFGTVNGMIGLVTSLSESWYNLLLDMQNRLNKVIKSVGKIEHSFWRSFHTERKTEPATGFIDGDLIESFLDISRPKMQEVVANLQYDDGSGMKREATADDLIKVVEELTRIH"}, "source": "paper doi:10.1101/2023.05.09.540020", "target": "DNA Damage Binding 1 (DDB1) protein (human (endogenous in HEK293T)) (UniProt Q16531)", "assay": "co-IP", "note": "No constants are given. Whether binding was seen depends on the method and setting. In cells and extracts the contact can be indirect. Some entries that bind do so weakly or less than the wild type."}
{"binder": "Transcription Termination Factor (TTF1), endogenous (protein, UniProt Q15361 1-905) MEGESSRFEIHTPVSDKKKKKCSIHKERPQKHSHEIFRDSSLVNEQSQITRRKKRKKDFQHLISSPLKKSRICDETANATSTLKKRKKRRYSALEVDEEAGVTVVLVDKENINNTPKHFRKDVDVVCVDMSIEQKLPRKPKTDKFQVLAKSHAHKSEALHSKVREKKNKKHQRKAASWESQRARDTLPQSESHQEESWLSVGPGGEITELPASAHKNKSKKKKKKSSNREYETLAMPEGSQAGREAGTDMQESQPTVGLDDETPQLLGPTHKKKSKKKKKKKSNHQEFEALAMPEGSQVGSEVGADMQESRPAVGLHGETAGIPAPAYKNKSKKKKKKSNHQEFEAVAMPESLESAYPEGSQVGSEVGTVEGSTALKGFKESNSTKKKSKKRKLTSVKRARVSGDDFSVPSKNSESTLFDSVEGDGAMMEEGVKSRPRQKKTQACLASKHVQEAPRLEPANEEHNVETAEDSEIRYLSADSGDADDSDADLGSAVKQLQEFIPNIKDRATSTIKRMYRDDLERFKEFKAQGVAIKFGKFSVKENKQLEKNVEDFLALTGIESADKLLYTDRYPEEKSVITNLKRRYSFRLHIGRNIARPWKLIYYRAKKMFDVNNYKGRYSEGDTEKLKMYHSLLGNDWKTIGEMVARSSLSVALKFSQISSQRNRGAWSKSETRKLIKAVEEVILKKMSPQELKEVDSKLQENPESCLSIVREKLYKGISWVEVEAKVQTRNWMQCKSKWTEILTKRMTNGRRIYYGMNALRAKVSLIERLYEINVEDTNEIDWEDLASAIGDVPPSYVQTKFSRLKAVYVPFWQKKTFPEIIDYLYETTLPLLKEKLEKMMEKKGTKIQTPAAPKQVFPFRDIFYYEDDSEGEDIEKESEGQAPCMAHACNSSTLGGQGRWII", "values": [{"measurement": "binding", "result": "binds"}]}
